One data set is described as follows: in vivo. Conditions: albino, rabbit, plasma, po, 10 mg/kg.
The conditions of data set [1]: values reported in human studies; cited from earlier work.
The conditions of data set [2]: share of elimination; cited from earlier work.
For data set [3] the following is noted: rabbits, single oral dose 10 mg kg^−1, n = 5, mean; unit as in Table 4.

Molecules are shown by their SMILES. Where two headings read alike, the source gives them in different places.

These results are taken from paper PMC12054466 (RSC Advances, 2025).

As a reminder, the AUC(0-inf) is the area under the concentration-time curve extrapolated to infinity. Higher therefore signals high exposure. By AUC(0-t) is commonly meant exposure summed from dosing to a finite time, without extrapolation to infinity. As usually defined, the MRT inf is a mean duration of stay, worked out from the concentration-time curve. One may read the Tmax as the time at which the peak concentration occurs. On to `CC(C)(C(=O)O)c1ccc(C(O)CCCN2CCC(C(O)(c3ccccc3)c3ccccc3)CC2)cc1` (centres unmarked) [fexofenadine, Fexofenadine], for which, in “in vivo”, the AUC(0-inf) came out at 6500 ng·h/mL, the AUC(0-t) stood at 6020 ± 1120 ng·h/mL, the MRT inf is 15.5 h and the Tmax was determined as 3.6 h. Moreover, the Tmax in data set [1] is 0.83 to 1.33 h. In data set [2], the renal excretion is 11%. Further, in data set [3], the AUC0→t is 6018 ng/mL/h and the “AUC0→∞” value came to 6495 ng/mL/h.
